Experimental data taken from article PMC10853778 (Nucleic Acids Research, 2022).
For at least one entry, the source does not settle the construct or the ends of the probe. Weaker means in comparison with the reference protein, sequence or condition of that experiment. Where a protein sequence is shown, tags need not be part of it.

Tested on: T1, RTEL1 HHD1 (Homo sapiens)
T1 sequence (looked up): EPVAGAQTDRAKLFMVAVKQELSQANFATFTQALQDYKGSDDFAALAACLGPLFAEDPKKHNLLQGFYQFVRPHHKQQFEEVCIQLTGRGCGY
Test: NMR titration
Settings: minor CSPs, no or very weak binding; NMR: 20 mM Tris-HCl pH 7.4, 50 mM NaCl, 2 mM DTT, 0.02% NaN3, 10% D2O, 25 C (one ssDNA-22 titration at pH 6.5); recombinant protein; residues 886-978; protein details: N-terminal 6xHis

“AGGATTAGGATTAGGATTAGGA (double strand) [dsDNA-22]”: binds more weakly.
